Several values for one entry are separate records, joined by “and”; a condition that tells them apart may be missing. Equal entries are not always repeated. Peptide text beside a SMILES is read from it.
How the values were obtained:
[1] = tested on: CB8-MDPP; test: Induced circular dichroism (ICD) spectra of analytes with CB8-MDPP receptor complex; conditions: CB8-MDPP (20 µM), H2O, 22 °C; long-wavelength maxima (>300 nm) in ICD spectra
[2] = tested on: CB8-MDAP; test: Induced circular dichroism (ICD) spectra of analytes with CB8-MDAP receptor complex; conditions: CB8-MDAP (100 µM), H2O, 22 °C; long-wavelength maxima (>300 nm) in ICD spectra

Q: Which λ max [1] does the source give for `N[C@@H](CC(=O)O)C(=O)N[C@@H](Cc1ccccc1)C(=O)O` [AspPhe] (H-Asp-Phe-OH) here?
A: Its λ max is 446 nm and 329 nm.

Q: And the λ max [2]?
A: The λ max was 425 nm and 322 nm.

Q: How did the λ max [1] turn out when `N[C@@H](CCC(=O)O)C(=O)N[C@@H](Cc1c[nH]c2ccccc12)C(=O)O` [GluTrp] (H-Glu-Trp-OH) was run?
A: The λ max was 512 nm and 447 nm and 383 nm.

Q: What about the λ max [2] of the same molecule?
A: The λ max was 418 nm and 380 nm and 340 nm.

Q: For `NCC(=O)N[C@@H](Cc1c[nH]c2ccccc12)C(=O)NCC(=O)O` [GlyTrpGly] (H-Gly-Trp-Gly-OH), which λ max [1] is on record?
A: The λ max was 509 nm and 437 nm and 376 nm.

Q: What does the source list for `N[C@@H](Cc1ccccc1)C(=O)NCC(=O)O` [PheGly] (H-Phe-Gly-OH)?
A: λ max [1]: 324 nm and 277 nm; λ max [2]: 347 nm and 317 nm

Q: What does the source list for `CC(C)[C@H](NC(=O)[C@@H](N)Cc1ccccc1)C(=O)O` [PheVal] (H-Phe-Val-OH)?
A: λ max [1]: 446 nm and 323 nm; λ max [2]: 347 nm and 317 nm

Q: `N[C@@H](Cc1c[nH]c2ccccc12)C(=O)NCC(=O)NCC(=O)O` [TrpGlyGly] (H-Trp-Gly-Gly-OH) was tested. Which λ max [1] did it give?
A: The λ max was 510 nm and 447 nm and 380 nm.

Q: What does the source list for `N[C@@H](Cc1c[nH]c2ccccc12)C(=O)N1CCC[C@H]1C(=O)O` [TrpPro] (H-Trp-Pro-OH)?
A: λ max [1]: 510 nm and 430 nm and 369 nm; λ max [2]: 410 nm

From EP2899531B1, “Method for detecting a chiral analytes” (Jacobs University Bremen gGmbH, priority 2013, dated 2015)
